No constants are given. Whether binding was seen depends on the method and setting. Some binding calls cover weakened binding; strength is not graded here. Tags and fused reporters may be left off the sequences shown.
Target: T1, myc-tagged rat B2R construction (rat, UniProt P25023 1-396)
T1 construct: bradykinin B2 receptor, rat; also called rat myc-B2R; rat recombinant myc-B2R; source: HEK 293 cells stably expressing the construction, adherent intact cells
T1 sequence (looked up): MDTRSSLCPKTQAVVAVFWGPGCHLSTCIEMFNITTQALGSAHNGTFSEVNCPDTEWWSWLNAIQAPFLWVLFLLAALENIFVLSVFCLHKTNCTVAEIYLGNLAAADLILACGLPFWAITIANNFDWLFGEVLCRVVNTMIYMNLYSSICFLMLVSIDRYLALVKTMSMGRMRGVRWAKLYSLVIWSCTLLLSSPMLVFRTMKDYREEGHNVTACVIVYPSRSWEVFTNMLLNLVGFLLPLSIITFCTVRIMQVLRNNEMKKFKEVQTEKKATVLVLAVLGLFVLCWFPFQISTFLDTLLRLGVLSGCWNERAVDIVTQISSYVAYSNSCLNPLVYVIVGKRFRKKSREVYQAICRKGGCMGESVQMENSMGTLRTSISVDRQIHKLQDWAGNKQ
Assay: radioligand binding; competition of the binding of 3 nM [^3H]BK to adherent intact HEK 293 cells stably expressing myc-tagged rat B2R by unlabeled peptides; 0°C; peptidase inhibitors including captopril and PMSF; one-site competition fit; only the binder purified

The chains behind the UniProt entries cited, without tags or fusion partners. Where a name states a change or a piece, a line headed by the entry shows the natural chain unless it says otherwise.
UniProt P01042: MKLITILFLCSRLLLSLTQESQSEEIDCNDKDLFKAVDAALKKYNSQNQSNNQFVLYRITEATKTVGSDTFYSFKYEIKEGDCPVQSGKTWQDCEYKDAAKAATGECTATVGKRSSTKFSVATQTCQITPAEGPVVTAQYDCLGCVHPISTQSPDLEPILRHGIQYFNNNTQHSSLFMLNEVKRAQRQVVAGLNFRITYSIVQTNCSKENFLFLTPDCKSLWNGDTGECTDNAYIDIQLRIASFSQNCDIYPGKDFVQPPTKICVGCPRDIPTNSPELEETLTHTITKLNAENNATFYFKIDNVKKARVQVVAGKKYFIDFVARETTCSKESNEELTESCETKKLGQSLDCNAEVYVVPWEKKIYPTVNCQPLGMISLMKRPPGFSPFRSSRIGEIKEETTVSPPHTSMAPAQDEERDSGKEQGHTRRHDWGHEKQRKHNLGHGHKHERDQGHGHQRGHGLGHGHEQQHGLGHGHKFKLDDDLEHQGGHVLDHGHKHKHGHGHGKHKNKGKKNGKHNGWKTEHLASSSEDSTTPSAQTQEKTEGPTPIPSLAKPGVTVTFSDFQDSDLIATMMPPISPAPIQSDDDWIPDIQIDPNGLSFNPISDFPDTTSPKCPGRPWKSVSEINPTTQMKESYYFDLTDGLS

binding: binds
Substance: [^3H]bradykinin (from UniProt P01042 381-389) (peptide)

— article PMC5880945, “D-Arg^0-Bradykinin-Arg-Arg, a Latent Vasoactive Bradykinin B2 Receptor Agonist Metabolically Activated by Carboxypeptidases” (Frontiers in Pharmacology, 2018)
